# Measured values as given in the supplement of paper PMC7052299.
# Some of the results follow. Single values are uncertain, as repeats are few or missing.
# Tested on: Danio rerio embryo (th-expressing DA/NA neurons)
# Assay: percentage of embryos with altered th expression (decrease or increase vs DMSO control) in brain region; higher = more embryos with altered dopaminergic/noradrenergic marker expression; extreme values may be limits of the assay
# Conditions: treatment window: 24-72 hpf, fixed 96 hpf
# Method: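 Primary screen in zebrafish embryos (AB/TL). Embryos were treated with each compound at 1, 3, 10 or 30 µM in E3/PTU with 1% DMSO from 24 to 72 hpf, washed out, and fixed at 96 hpf. th (tyrosine hydroxylase) expression was scored by whole-mount in situ hybridization per DA/NA brain region (strong decrease, decrease, normal, increase, strong increase), with 7-16 embryos per treatment and no independent replicates. The value is the percentage of scored embryos whose th expression was altered (decrease or increase) relative to DMSO controls.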
structure (smiles),measurement,setting,value
CC(C)N(CCCNC(=O)Nc1ccc(C(C)(C)C)cc1)C[C@H]1O[C@@H](n2cc(Br)c3c(N)ncnc32)[C@H](O)[C@@H]1O,percentage of embryos with altered th expression,"1 µM, brain region: DC1",0%
same,percentage of embryos with altered th expression,"1 µM, brain region: DC2",0%
same,percentage of embryos with altered th expression,"1 µM, brain region: DC3",0%
same,percentage of embryos with altered th expression,"1 µM, brain region: DC 4,5,6",0%
same,percentage of embryos with altered th expression,"1 µM, brain region: LC",0%
same,percentage of embryos with altered th expression,"1 µM, brain region: MO",0%
same,percentage of embryos with altered th expression,"1 µM, brain region: Pretectum",0%
same,percentage of embryos with altered th expression,"1 µM, brain region: telencephalon",0%
same,percentage of embryos with altered th expression,"3 µM, brain region: DC1",0%
same,percentage of embryos with altered th expression,"3 µM, brain region: DC2",0%
same,percentage of embryos with altered th expression,"3 µM, brain region: DC3",0%
same,percentage of embryos with altered th expression,"3 µM, brain region: DC 4,5,6",0%
same,percentage of embryos with altered th expression,"3 µM, brain region: LC",0%
same,percentage of embryos with altered th expression,"3 µM, brain region: MO",0%
same,percentage of embryos with altered th expression,"3 µM, brain region: Pretectum",0%
same,percentage of embryos with altered th expression,"3 µM, brain region: telencephalon",0%
same,percentage of embryos with altered th expression,"10 µM, brain region: DC1",0%
same,percentage of embryos with altered th expression,"10 µM, brain region: DC2",0%
same,percentage of embryos with altered th expression,"10 µM, brain region: DC3",0%
same,percentage of embryos with altered th expression,"10 µM, brain region: DC 4,5,6",9.09%
same,percentage of embryos with altered th expression,"10 µM, brain region: LC",0%
same,percentage of embryos with altered th expression,"10 µM, brain region: MO",0%
same,percentage of embryos with altered th expression,"10 µM, brain region: Pretectum",9.09%
same,percentage of embryos with altered th expression,"10 µM, brain region: telencephalon",9.09%
same,percentage of embryos with altered th expression,"30 µM, brain region: DC1",0%
same,percentage of embryos with altered th expression,"30 µM, brain region: DC2",0%
same,percentage of embryos with altered th expression,"30 µM, brain region: DC3",0%
same,percentage of embryos with altered th expression,"30 µM, brain region: DC 4,5,6",9.09%
same,percentage of embryos with altered th expression,"30 µM, brain region: LC",0%
same,percentage of embryos with altered th expression,"30 µM, brain region: MO",0%
same,percentage of embryos with altered th expression,"30 µM, brain region: Pretectum",0%
same,percentage of embryos with altered th expression,"30 µM, brain region: telencephalon",0%

# Some of the entries above, set out differently:
structure (smiles)	measurement	setting	value
CC(C)N(CCCNC(=O)Nc1ccc(C(C)(C)C)cc1)C[C@H]1O[C@@H](n2cc(Br)c3c(N)ncnc32)[C@H](O)[C@@H]1O	percentage of embryos with altered th expression	10 µM, brain region: DC2	0%
same	percentage of embryos with altered th expression	10 µM, brain region: DC3	0%
same	percentage of embryos with altered th expression	10 µM, brain region: DC 4,5,6	9.09%
same	percentage of embryos with altered th expression	10 µM, brain region: LC	0%
same	percentage of embryos with altered th expression	10 µM, brain region: MO	0%
same	percentage of embryos with altered th expression	10 µM, brain region: Pretectum	9.09%
same	percentage of embryos with altered th expression	10 µM, brain region: telencephalon	9.09%
same	percentage of embryos with altered th expression	30 µM, brain region: DC1	0%
same	percentage of embryos with altered th expression	30 µM, brain region: DC2	0%
